Experimental findings from paper doi:10.1101/2023.09.03.556084 are described below.

Protein sequences, listed by entry. Tags and fused reporters are not part of them. Lines headed by an entry give the natural chain unless they say otherwise; changes in a name come on top.
UniProt P26039: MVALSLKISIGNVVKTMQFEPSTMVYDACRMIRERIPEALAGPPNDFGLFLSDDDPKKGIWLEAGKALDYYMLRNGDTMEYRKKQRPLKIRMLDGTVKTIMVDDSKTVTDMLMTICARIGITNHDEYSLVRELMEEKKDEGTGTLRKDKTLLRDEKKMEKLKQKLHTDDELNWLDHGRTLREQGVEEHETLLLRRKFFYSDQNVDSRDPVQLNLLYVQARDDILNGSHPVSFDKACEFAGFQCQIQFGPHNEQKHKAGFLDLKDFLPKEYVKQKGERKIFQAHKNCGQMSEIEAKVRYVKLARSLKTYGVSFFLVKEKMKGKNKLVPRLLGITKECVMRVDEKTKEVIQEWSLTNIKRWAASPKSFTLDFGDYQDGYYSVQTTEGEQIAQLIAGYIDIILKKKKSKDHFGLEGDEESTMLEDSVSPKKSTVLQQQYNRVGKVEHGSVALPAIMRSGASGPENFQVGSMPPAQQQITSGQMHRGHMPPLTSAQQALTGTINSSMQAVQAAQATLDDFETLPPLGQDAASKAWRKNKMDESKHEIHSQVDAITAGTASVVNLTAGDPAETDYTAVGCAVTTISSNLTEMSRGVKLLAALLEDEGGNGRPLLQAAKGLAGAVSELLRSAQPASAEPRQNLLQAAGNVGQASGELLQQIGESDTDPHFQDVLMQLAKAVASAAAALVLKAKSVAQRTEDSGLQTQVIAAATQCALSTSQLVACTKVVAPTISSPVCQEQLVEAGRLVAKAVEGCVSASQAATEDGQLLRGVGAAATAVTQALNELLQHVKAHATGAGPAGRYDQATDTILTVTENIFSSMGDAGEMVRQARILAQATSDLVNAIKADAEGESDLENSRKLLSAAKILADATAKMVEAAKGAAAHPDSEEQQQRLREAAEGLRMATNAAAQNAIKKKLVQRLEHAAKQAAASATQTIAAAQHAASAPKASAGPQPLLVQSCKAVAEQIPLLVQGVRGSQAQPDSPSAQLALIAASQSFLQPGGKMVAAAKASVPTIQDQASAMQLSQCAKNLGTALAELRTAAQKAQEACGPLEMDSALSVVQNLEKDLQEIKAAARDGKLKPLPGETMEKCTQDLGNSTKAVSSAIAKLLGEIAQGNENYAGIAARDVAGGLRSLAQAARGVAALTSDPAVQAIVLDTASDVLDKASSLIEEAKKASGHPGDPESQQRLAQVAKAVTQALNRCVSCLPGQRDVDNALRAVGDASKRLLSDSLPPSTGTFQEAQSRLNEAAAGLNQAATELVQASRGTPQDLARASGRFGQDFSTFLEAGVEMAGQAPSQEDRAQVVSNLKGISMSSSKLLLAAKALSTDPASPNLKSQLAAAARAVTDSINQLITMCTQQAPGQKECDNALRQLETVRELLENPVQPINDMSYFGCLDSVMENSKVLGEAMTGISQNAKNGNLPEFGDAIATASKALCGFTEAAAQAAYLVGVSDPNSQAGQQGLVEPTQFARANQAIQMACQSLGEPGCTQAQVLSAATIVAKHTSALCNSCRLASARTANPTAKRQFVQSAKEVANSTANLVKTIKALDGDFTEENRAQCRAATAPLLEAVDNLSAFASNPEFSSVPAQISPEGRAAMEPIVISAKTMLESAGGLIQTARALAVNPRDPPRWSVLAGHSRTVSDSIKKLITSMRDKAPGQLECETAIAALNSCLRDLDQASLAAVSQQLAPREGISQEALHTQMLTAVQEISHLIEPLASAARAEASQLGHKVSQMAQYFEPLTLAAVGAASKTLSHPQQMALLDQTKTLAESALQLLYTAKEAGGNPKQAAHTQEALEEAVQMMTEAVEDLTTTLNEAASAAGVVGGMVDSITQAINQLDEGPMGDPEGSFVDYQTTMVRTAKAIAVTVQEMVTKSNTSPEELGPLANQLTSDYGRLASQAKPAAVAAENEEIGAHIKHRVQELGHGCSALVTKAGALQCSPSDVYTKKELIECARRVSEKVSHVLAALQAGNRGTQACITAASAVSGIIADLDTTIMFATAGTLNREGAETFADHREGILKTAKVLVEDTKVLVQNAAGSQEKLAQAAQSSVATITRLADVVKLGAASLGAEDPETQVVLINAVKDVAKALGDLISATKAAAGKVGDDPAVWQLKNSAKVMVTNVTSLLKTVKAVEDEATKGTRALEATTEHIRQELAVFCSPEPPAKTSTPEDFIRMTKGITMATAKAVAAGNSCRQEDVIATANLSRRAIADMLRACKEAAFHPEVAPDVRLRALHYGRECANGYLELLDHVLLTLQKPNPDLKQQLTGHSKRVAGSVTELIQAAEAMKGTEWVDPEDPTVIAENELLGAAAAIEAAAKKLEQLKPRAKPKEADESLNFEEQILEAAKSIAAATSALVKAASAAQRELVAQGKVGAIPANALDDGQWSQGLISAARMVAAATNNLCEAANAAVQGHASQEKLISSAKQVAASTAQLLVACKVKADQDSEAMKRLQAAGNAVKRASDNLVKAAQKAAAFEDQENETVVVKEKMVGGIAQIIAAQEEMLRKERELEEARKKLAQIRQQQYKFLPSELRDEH

The assay addresses GFP-tagged talin 1 R2 domain, wild type (mouse) (UniProt P26039). Description: affinity purification with mass spectrometry.

Results are given in words; binding and its absence hold for the method and conditions named. In cells and extracts the contact can be indirect. A yes stands for co-enrichment or nearness to the bait. Other partners may have been found.

With “ARPC5L (endogenous, found by mass spectrometry) (from UniProt Q9BPX5 1-153)”, the binding entry is listed as “binds”.
